For at least one entry, the source does not settle the construct or the ends of the probe. At least one verdict was read from the data and is not stated in words by the source.
Key:
MeCP2 MBD 77-167 WT = MeCP2 MBD 77-167 WT (UniProt P51608); experiment: EMSA; conditions: poly(dA-dT) competitor; 5-methylcytosine at the central CG (C21 of S5, the only CG; methylation of the reverse strand at C37 presumed, not stated explicitly); EMSA: 1 ng probe, 1 ug poly(dA-dT) competitor, 10 mM Tris-HCl pH 7.5, 150 mM KCl, 0.1 mM EDTA, 5% glycerol, 0.1 mg/ml BSA, on ice 20 min; 10% acrylamide TBE gel; recombinant protein; residues 77-167; protein details: C-terminal His (pET30b)
MeCP2 1-205 WT = experiment: EMSA; conditions: poly(dA-dT) competitor; 5-methylcytosine at the central CG (C21 of S5, the only CG; methylation of the reverse strand at C37 presumed, not stated explicitly); EMSA: 1 ng probe, 1 ug poly(dA-dT) competitor, 10 mM Tris-HCl pH 7.5, 150 mM KCl, 0.1 mM EDTA, 5% glycerol, 0.1 mg/ml BSA, on ice 20 min; 10% acrylamide TBE gel; recombinant protein; protein details: C-terminal His (pET30b)

Sequences of proteins named here, by UniProt entry; tags and fusion partners are left off. A change or cut given only in a name is not applied to a line headed by its entry.
UniProt P51608: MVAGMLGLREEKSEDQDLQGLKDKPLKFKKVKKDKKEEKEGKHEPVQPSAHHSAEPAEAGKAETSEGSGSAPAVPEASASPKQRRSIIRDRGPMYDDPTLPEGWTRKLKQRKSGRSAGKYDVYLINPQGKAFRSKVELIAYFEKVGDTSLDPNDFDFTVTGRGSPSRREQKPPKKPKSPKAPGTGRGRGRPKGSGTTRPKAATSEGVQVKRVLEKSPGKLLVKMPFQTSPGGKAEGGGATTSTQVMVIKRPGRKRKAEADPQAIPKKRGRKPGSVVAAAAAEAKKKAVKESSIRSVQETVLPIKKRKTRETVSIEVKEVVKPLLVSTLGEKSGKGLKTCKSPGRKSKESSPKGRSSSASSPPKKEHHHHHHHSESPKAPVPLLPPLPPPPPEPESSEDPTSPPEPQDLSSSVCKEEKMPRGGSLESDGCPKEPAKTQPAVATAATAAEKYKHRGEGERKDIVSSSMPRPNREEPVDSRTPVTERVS

**Q.** Does “AAGCATGCAATGCCCTGGAACGGAATTCTTCTAATAAAAGATGTATCATTTTAAATGC (double strand) [Bdnf promoter mCG probe]” bind (MeCP2 MBD 77-167 WT)?
**A.** binds

**Q.** Does “AAGCATGCAATGCCCTGGAACGGAATTCTTCTAATAAAAGATGTATCATTTTAAATGC (double strand) [Bdnf promoter mCG probe]” bind (MeCP2 1-205 WT)?
**A.** binds

Reference: PMC4731022
